Reference: patent US20240301069A1
Results are given in words; binding and its absence hold for the method and conditions named. Some entries that bind do so weakly or less than the wild type.

By UniProt entry, the sequences of proteins in these tests, tags left out.
UniProt Q9NZQ7: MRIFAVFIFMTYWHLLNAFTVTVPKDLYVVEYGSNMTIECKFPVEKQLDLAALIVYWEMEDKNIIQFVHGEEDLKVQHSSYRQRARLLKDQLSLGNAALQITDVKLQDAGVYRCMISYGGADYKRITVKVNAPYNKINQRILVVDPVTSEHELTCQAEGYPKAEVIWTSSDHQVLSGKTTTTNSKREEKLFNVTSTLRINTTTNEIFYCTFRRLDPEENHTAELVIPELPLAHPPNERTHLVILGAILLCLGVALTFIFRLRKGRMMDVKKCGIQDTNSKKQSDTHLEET

Assays:
[1] = target: recombinant human PD-L1 protein carrying a hFc label (human) (UniProt Q9NZQ7); test: ELISA on coated hPD-L1 hFc, antibody at 10 µg/mL
[2] = target: recombinant human PD-L1 protein carrying a hFc label (human) (UniProt Q9NZQ7); test: ELISA, hPD-L1 hFc coated at 1 µg/mL, antibody at 10 µg/mL, HRP goat anti-mouse IgG

| binding [1] | binding [2] | Binder |
| --- | --- | --- |
| binds | binds | F016-21 (antibody, V domains shown) VH: EVQLQQSGPELVKPGASVKMSCKASGYTFTDYVMHWVKQKPGQGLEWIGYINPYNDGTKFNEKFKGKATLTSDKSSSTAYMELSSLTSEDSAVYYCAKQTLDYWGQGTSVTVSS VL: DIVLTQSPASLAVSLGQRATISCRASESVEYFGTTLMQWYQQRPGQPPKLLIYAASNVESGVPARFSGSGSGTDFSLNIHPVEEDDIAMYFCQQSRKVPYTFGGGTKLEIKR |
| binds | binds | F016-193 (antibody, V domains shown) VH: EVQLQQSGPELVKPGASVKMSCKASGYTFTSYVMHWVKQKPGQGLEWIGYINPHNDGNKYNEKFKGKATLTSDKSSSSAYMELSSLTSEDSAVYYCAKQTMDYWGQGTSVTVSS VL: DIVLTQSPASLAVSLGQRATLSCRASESVEFYGTTLMQWFQQKPGQPPKLLIYAASNVESGVPARFSGSGSGTDFSLNIHPVEEDDIAMYFCQQSRKVPYTFGGGTKLEIKR |
| binds | binds | F016-870 (antibody, V domains shown) VH: EVQLQESGPSLVKPSQTLSLTCSVTGDSITSGYWNWIRKFPGNKLEYMGYISYTGSTYQNPSLKSRISFTRDTSKNQYYLQLSSVTTEDTATYYCARSRAWIRTYFDYWGQGTTLTVSS VL: EIVLTQSPALMAASPGEKVTITCSVSSSISSSNLHWYQQKSETSPKPWIYGTSNLASGVPVRFSGSGSGTSYSLTISSMEAEDAATYYCQQWSSYPLTFGAGTKLELKR |
